Inhibition data for 1 compound are collected here from PubChem BioAssay AID602318 (Sanford-Burnham Center for Chemical Genomics, 2012).

Sequences of proteins named here, by UniProt entry; tags and fusion partners are left off.
UniProt O00487, whole entry, looked up: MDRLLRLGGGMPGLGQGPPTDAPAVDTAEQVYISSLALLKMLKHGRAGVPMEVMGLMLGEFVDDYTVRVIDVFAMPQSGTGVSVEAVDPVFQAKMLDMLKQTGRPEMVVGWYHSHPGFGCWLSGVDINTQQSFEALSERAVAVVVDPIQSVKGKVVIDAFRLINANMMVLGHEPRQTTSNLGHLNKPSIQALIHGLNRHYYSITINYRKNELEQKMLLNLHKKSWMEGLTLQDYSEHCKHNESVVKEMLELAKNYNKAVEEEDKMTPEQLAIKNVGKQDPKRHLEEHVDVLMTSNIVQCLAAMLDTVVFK

What is called inhibition is how much of the control response was suppressed.

In all, about 1,900 compounds went through this assay and about 550 (29%) were called active. Rule as the data show it: active = inhibition above about 40%; inactive = the rest. The entries are a selection whose mix differs from that of the whole data set.

The target of this assay is 26S proteasome non-ATPase regulatory subunit 14 (Homo sapiens) (UniProt O00487). Kind of assay: Rpn11 (PSMD14) deubiquitinase inhibitors, confirmation, biochemical, fluorescence polarization, single concentration (AID 602318). To be noted: purified human 26S proteasome, Ub4-pepOG fluorescence polarization; at 20 µM; stronger effect = higher value.
Take `Cc1cccc(N2C(=O)NC(=O)/C(=C\c3cnn(-c4ccccc4)c3)C2=O)c1`: the inhibition is inactive: 1.59%.
